PubChem BioAssay AID1904 – GNF | 2009

Assay: 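Gene silencing that lengthens or shortens period, or boosts amplitude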 (follow-up of hits)
System: human U2OS osteosarcoma cells stably expressing a destabilised luciferase driven by the Bmal1 promoter
Knock-down reagent: siRNA pair against human genes, 12.5 nM (two siRNAs, 0.5 pmol each, per well)
Duration: about 3 days after transfection, then luminescence recorded for about 4 days
Detection: 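Bmal1 reporter light output measured every 2 hours over several days, detrended, then fitted to give period and amplitude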
Rule for the call: 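Scored active if separate single siRNAs repeated the clock phenotype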
Meaning of the calls: active = confirmed by single siRNAs; inactive = not confirmed
The reagents shown are a selection, not the whole library. 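Lists only primary-screen hits; phenotype classes come from fitted traces, and the underlying luminescence values are not given.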

SERPINA12 [SID85104281] gave clock phenotype class longer clock period; seen with two independent siRNA pairs for the gene; confirmed with single siRNAs phenotype reproduced by individual siRNAs; active.
With knock-down of SERPINA12 [SID85111504], the screen gave clock phenotype class longer clock period; seen with two independent siRNA pairs for the gene; confirmed with single siRNAs phenotype reproduced by individual siRNAs; active.
For KIAA0020 [SID85115228], the entry reads clock phenotype class shorter clock period; seen with one siRNA pair in duplicate wells; confirmed with single siRNAs phenotype not reproduced by individual siRNAs; inconclusive.
KIAA0020 [SID85126052] scored clock phenotype class shorter clock period; seen with one siRNA pair in duplicate wells; confirmed with single siRNAs phenotype not reproduced by individual siRNAs; inconclusive.
TPO [SID85101477] gave clock phenotype class longer clock period; seen with two independent siRNA pairs for the gene; confirmed with single siRNAs phenotype reproduced by individual siRNAs; active.
TPO [SID85108700] scored clock phenotype class longer clock period; seen with two independent siRNA pairs for the gene; confirmed with single siRNAs phenotype reproduced by individual siRNAs; active.
Knock-down of KCNG2 [SID85102707] gave: clock phenotype class longer clock period; seen with two independent siRNA pairs for the gene; confirmed with single siRNAs phenotype reproduced by individual siRNAs; active.
Against KCNG2 [SID85109930], the entry reads clock phenotype class longer clock period; seen with two independent siRNA pairs for the gene; confirmed with single siRNAs phenotype reproduced by individual siRNAs; active.
For EMR2 [SID85104875], the entry reads clock phenotype class longer clock period; seen with two independent siRNA pairs for the gene; confirmed with single siRNAs phenotype reproduced by individual siRNAs; active.
EMR2 [SID85112098] showed clock phenotype class longer clock period; seen with two independent siRNA pairs for the gene; confirmed with single siRNAs phenotype reproduced by individual siRNAs; active.
NEIL1 [SID85103512] scored clock phenotype class shorter clock period; seen with one siRNA pair in duplicate wells; confirmed with single siRNAs phenotype not reproduced by individual siRNAs; inconclusive.
For NEIL1 [SID85110735] the deposit lists clock phenotype class shorter clock period; seen with one siRNA pair in duplicate wells; confirmed with single siRNAs phenotype not reproduced by individual siRNAs; inconclusive.
FLJ30469 [SID85104220] scored clock phenotype class shorter clock period; seen with one siRNA pair in duplicate wells; confirmed with single siRNAs phenotype not reproduced by individual siRNAs; inconclusive.
Against FLJ30469 [SID85111443] the deposit lists clock phenotype class shorter clock period; seen with one siRNA pair in duplicate wells; confirmed with single siRNAs phenotype not reproduced by individual siRNAs; inconclusive.
For CSNK1A1 [SID85105388], the values are clock phenotype class longer clock period; seen with two independent siRNA pairs for the gene; confirmed with single siRNAs phenotype reproduced by individual siRNAs; active.
Depletion of CSNK1A1 [SID85112611] came out at: clock phenotype class longer clock period; seen with two independent siRNA pairs for the gene; confirmed with single siRNAs phenotype reproduced by individual siRNAs; active.
Depletion of URG4 [SID85117713] resulted in: clock phenotype class higher rhythm amplitude; seen with one siRNA pair in duplicate wells; confirmed with single siRNAs phenotype reproduced by individual siRNAs; active.
Silencing of URG4 [SID85128537] gave: clock phenotype class higher rhythm amplitude; seen with one siRNA pair in duplicate wells; confirmed with single siRNAs phenotype reproduced by individual siRNAs; active.

7 successive entries from above:
EMR2 [SID85104875]: clock phenotype class = longer clock period; seen with two independent siRNA pairs for the gene; confirmed with single siRNAs = phenotype reproduced by individual siRNAs; Call = active
EMR2 [SID85112098]: clock phenotype class = longer clock period; seen with two independent siRNA pairs for the gene; confirmed with single siRNAs = phenotype reproduced by individual siRNAs; Call = active
NEIL1 [SID85103512]: clock phenotype class = shorter clock period; seen with one siRNA pair in duplicate wells; confirmed with single siRNAs = phenotype not reproduced by individual siRNAs; Call = inconclusive
NEIL1 [SID85110735]: clock phenotype class = shorter clock period; seen with one siRNA pair in duplicate wells; confirmed with single siRNAs = phenotype not reproduced by individual siRNAs; Call = inconclusive
FLJ30469 [SID85104220]: clock phenotype class = shorter clock period; seen with one siRNA pair in duplicate wells; confirmed with single siRNAs = phenotype not reproduced by individual siRNAs; Call = inconclusive
FLJ30469 [SID85111443]: clock phenotype class = shorter clock period; seen with one siRNA pair in duplicate wells; confirmed with single siRNAs = phenotype not reproduced by individual siRNAs; Call = inconclusive
CSNK1A1 [SID85105388]: clock phenotype class = longer clock period; seen with two independent siRNA pairs for the gene; confirmed with single siRNAs = phenotype reproduced by individual siRNAs; Call = active

The listing continues.
MYOC [SID85100671] gave clock phenotype class longer clock period; seen with two independent siRNA pairs for the gene; confirmed with single siRNAs phenotype reproduced by individual siRNAs; active.
With knock-down of MYOC [SID85107894], the record shows clock phenotype class longer clock period; seen with two independent siRNA pairs for the gene; confirmed with single siRNAs phenotype reproduced by individual siRNAs; active.
With knock-down of LOC197322 [SID85120942] the results were clock phenotype class shorter clock period; seen with two independent siRNA pairs for the gene; confirmed with single siRNAs phenotype reproduced by individual siRNAs; active.
For LOC197322 [SID85131766], the entry reads clock phenotype class shorter clock period; seen with two independent siRNA pairs for the gene; confirmed with single siRNAs phenotype reproduced by individual siRNAs; active.
Against EXOSC4 [SID85117076] the deposit lists clock phenotype class longer clock period; seen with two independent siRNA pairs for the gene; confirmed with single siRNAs phenotype not reproduced by individual siRNAs; inconclusive.
With knock-down of EXOSC4 [SID85127900] the results were clock phenotype class longer clock period; seen with two independent siRNA pairs for the gene; confirmed with single siRNAs phenotype not reproduced by individual siRNAs; inconclusive.
Against C10orf137 [SID85116372], the entry reads clock phenotype class longer clock period; seen with two independent siRNA pairs for the gene; confirmed with single siRNAs phenotype reproduced by individual siRNAs; active.
C10orf137 [SID85127196] gave clock phenotype class longer clock period; seen with two independent siRNA pairs for the gene; confirmed with single siRNAs phenotype reproduced by individual siRNAs; active.
Against TD-60 [SID85117686], the values are clock phenotype class shorter clock period; seen with one siRNA pair in duplicate wells; confirmed with single siRNAs phenotype reproduced by individual siRNAs; active.
After knock-down of TD-60 [SID85128510] the results were clock phenotype class shorter clock period; seen with one siRNA pair in duplicate wells; confirmed with single siRNAs phenotype reproduced by individual siRNAs; active.
CLPX [SID85115512] showed clock phenotype class shorter clock period; seen with two independent siRNA pairs for the gene; confirmed with single siRNAs phenotype not reproduced by individual siRNAs; inconclusive.
Against CLPX [SID85126336] the deposit lists clock phenotype class shorter clock period; seen with two independent siRNA pairs for the gene; confirmed with single siRNAs phenotype not reproduced by individual siRNAs; inconclusive.
After knock-down of RAB3A [SID85100967], the record shows clock phenotype class longer clock period; seen with two independent siRNA pairs for the gene; confirmed with single siRNAs phenotype reproduced by individual siRNAs; active.
Knock-down of RAB3A [SID85108190] came out at: clock phenotype class longer clock period; seen with two independent siRNA pairs for the gene; confirmed with single siRNAs phenotype reproduced by individual siRNAs; active.
EMP2 [SID85113627] gave clock phenotype class longer clock period; seen with two independent siRNA pairs for the gene; confirmed with single siRNAs phenotype reproduced by individual siRNAs; active.
EMP2 [SID85124451] gave clock phenotype class longer clock period; seen with two independent siRNA pairs for the gene; confirmed with single siRNAs phenotype reproduced by individual siRNAs; active.
Silencing of GFAP [SID85113632] resulted in: clock phenotype class longer clock period; seen with two independent siRNA pairs for the gene; confirmed with single siRNAs phenotype reproduced by individual siRNAs; active.
GFAP [SID85124456] showed clock phenotype class longer clock period; seen with two independent siRNA pairs for the gene; confirmed with single siRNAs phenotype reproduced by individual siRNAs; active.
Against C11ORF4 [SID85104961], the entry reads clock phenotype class longer clock period; seen with two independent siRNA pairs for the gene; confirmed with single siRNAs phenotype reproduced by individual siRNAs; active.
With knock-down of C11ORF4 [SID85112184] the results were clock phenotype class longer clock period; seen with two independent siRNA pairs for the gene; confirmed with single siRNAs phenotype reproduced by individual siRNAs; active.
With knock-down of MSRB2 [SID85116079], the screen gave clock phenotype class longer clock period; seen with two independent siRNA pairs for the gene; confirmed with single siRNAs not retested with individual siRNAs.
For MSRB2 [SID85126903], the values are clock phenotype class longer clock period; seen with two independent siRNA pairs for the gene; confirmed with single siRNAs not retested with individual siRNAs.
SYCP2 [SID85115322] scored clock phenotype class higher rhythm amplitude; seen with one siRNA pair in duplicate wells; confirmed with single siRNAs phenotype not reproduced by individual siRNAs; inconclusive.
With knock-down of SYCP2 [SID85126146], the screen gave clock phenotype class higher rhythm amplitude; seen with one siRNA pair in duplicate wells; confirmed with single siRNAs phenotype not reproduced by individual siRNAs; inconclusive.
Against RRBP1 [SID85100896], the entry reads clock phenotype class shorter clock period; seen with one siRNA pair in duplicate wells; confirmed with single siRNAs not retested with individual siRNAs.
Knock-down of RRBP1 [SID85108119] gave: clock phenotype class shorter clock period; seen with one siRNA pair in duplicate wells; confirmed with single siRNAs not retested with individual siRNAs.
Against FBXW11 [SID85102721], the values are clock phenotype class longer clock period; seen with two independent siRNA pairs for the gene; confirmed with single siRNAs phenotype reproduced by individual siRNAs; active.
For FBXW11 [SID85109944], the entry reads clock phenotype class longer clock period; seen with two independent siRNA pairs for the gene; confirmed with single siRNAs phenotype reproduced by individual siRNAs; active.
GLT25D2 [SID85116036] gave clock phenotype class shorter clock period; seen with one siRNA pair in duplicate wells; confirmed with single siRNAs phenotype not reproduced by individual siRNAs; inconclusive.
For GLT25D2 [SID85126860], the values are clock phenotype class shorter clock period; seen with one siRNA pair in duplicate wells; confirmed with single siRNAs phenotype not reproduced by individual siRNAs; inconclusive.
RNF103 [SID85101735] scored clock phenotype class higher rhythm amplitude; seen with one siRNA pair in duplicate wells; confirmed with single siRNAs phenotype not reproduced by individual siRNAs; inconclusive.
After knock-down of RNF103 [SID85108958] the results were clock phenotype class higher rhythm amplitude; seen with one siRNA pair in duplicate wells; confirmed with single siRNAs phenotype not reproduced by individual siRNAs; inconclusive.
DHX29 [SID85116956] scored clock phenotype class shorter clock period; seen with two independent siRNA pairs for the gene; confirmed with single siRNAs not retested with individual siRNAs.
Depletion of DHX29 [SID85127780] resulted in: clock phenotype class shorter clock period; seen with two independent siRNA pairs for the gene; confirmed with single siRNAs not retested with individual siRNAs.
